The whole screen tested about 310,000 compounds, of which about 17,000 (5.5%) were called active. The shares of active, inactive and inconclusive entries below differ from those in the screen. The call rests on the fitted dose curve; in most records, active means well fitted inhibition curve with a large enough effect; inconclusive means small, poorly fitted or top-dose-only effect, or effect the other way; inactive means no such curve, though single readings can be large or run the other way. Potencies of inconclusive entries are doubtful fits and often do not repeat.
Biological target: Nuclear receptor ROR-gamma (Mus musculus) (UniProt P51450)
Test: qHTS for inhibitors of ROR gamma transcriptional activity; further: nearly all actives have a fitted effect of over 60% in size
Settings: Drosophila S2 Gal4-RORgamma UAS-luciferase reporter, 20 h; series mostly up to 53.6 µM
How it was run: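 Compounds are pin-transferred onto Drosophila Schneider cells expressing a copper-inducible Gal4–ROR gamma transactivation domain fusion. After 1 hr, copper sulfate is added to 700 uM final; luciferase is read 20 hr later.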
Potency means the concentration at half of the fitted maximal effect.

The chains behind the UniProt entries cited, without tags or fusion partners. Where a name states a change or a piece, a line headed by the entry shows the natural chain unless it says otherwise.
UniProt P51450: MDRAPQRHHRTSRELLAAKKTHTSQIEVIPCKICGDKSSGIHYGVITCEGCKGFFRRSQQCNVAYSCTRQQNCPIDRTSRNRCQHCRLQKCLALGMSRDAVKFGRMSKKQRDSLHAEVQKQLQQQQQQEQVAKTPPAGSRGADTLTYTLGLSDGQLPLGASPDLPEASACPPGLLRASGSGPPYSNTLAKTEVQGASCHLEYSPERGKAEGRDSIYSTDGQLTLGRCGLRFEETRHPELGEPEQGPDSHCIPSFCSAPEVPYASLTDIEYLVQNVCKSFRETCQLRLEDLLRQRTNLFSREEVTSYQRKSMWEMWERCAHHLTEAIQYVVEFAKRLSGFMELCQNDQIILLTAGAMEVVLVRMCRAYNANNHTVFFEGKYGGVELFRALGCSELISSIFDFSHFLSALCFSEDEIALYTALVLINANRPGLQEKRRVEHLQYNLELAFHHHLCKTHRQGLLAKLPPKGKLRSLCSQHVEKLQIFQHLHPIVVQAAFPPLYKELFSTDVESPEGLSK

Row | SMILES | Potency
1 | O=C(CN1C(=O)c2ccccc2C1=O)Oc1ccc(F)cc1 | inactive
2 | Cc1nn(Cc2ccc(Cl)c(Cl)c2)c(C)c1NC(=O)c1cc(-c2ccco2)on1 | inconclusive: 35.5 µM [activator, single point]
3 | O=C(N/N=C/c1c[nH]c2ccccc12)c1[nH]c2ccc(Br)cc2c1-c1ccccc1 | active: 15.8 µM
4 | COc1cccc(NC(=O)[C@H](C)NC(=O)C2CCN(S(=O)(=O)c3ccc(C)cc3)CC2)c1 | inactive
5 | CCOc1cc(CNc2cccc3[nH]c(C)nc23)ccc1OC | inactive
6 | O=C(CNC(=S)N(CCCN1CCOCC1)Cc1cccs1)NCCN1CCOCC1 | inactive
7 | COC(=O)[C@@]1(Cc2ccc(F)cc2)[C@H]2c3cc(C(=O)N(C)C)n(Cc4cc(F)c(F)c(F)c4)c3C[C@H]2CN1C(=O)c1ccccc1 | inactive
8 | CCCN(CCC)S(=O)(=O)c1cc(Br)cc2c1N(C(=O)CC)CC2 | inconclusive: 22.4 µM [inhibitor, single point]
9 | COc1ccc(CSc2nnc3n(C)c(=O)c4c5c(sc4n23)CCCC5)cc1 | inconclusive: 7.08 µM [inhibitor, partial curve]
10 | CCN(c1ccccc1)S(=O)(=O)c1ccc(C(=O)N(CCCN(C)C)c2nc3c(C)cccc3s2)cc1 | inconclusive: 35.5 µM [inhibitor, single point]
11 | Cc1cc(=O)oc2cc(OCC(O)Cn3ccnc3)ccc12 (stereo unspecified) | inactive
12 | C=CCNC(=O)CCCc1ccccc1 | inactive
13 | O=C1COC(c2ccccc2)C2CCCCN12 (stereo unspecified) | inconclusive: 10 µM [activator, partial curve]
14 | COc1ccc(CN2CC[C@@H](N3CCOCC3)[C@H](O)C2)cc1F | inactive
15 | Cc1c(NC(=S)NC(=O)C(C)(C)C)cccc1[N+](=O)[O-] | active: 14.1 µM
16 | O=C(N/N=C\c1ccccc1)c1sccc1-n1cccc1 | inconclusive: 22.4 µM [inhibitor, single point]
17 | Cc1ccc2nc(SCC(=O)Nc3ccc4c(c3)CCC4)[nH]c2c1 | inconclusive: 25.1 µM [inhibitor, single point]
18 | COC(=O)c1cccc(NC(=S)NCc2ccc(Cl)cc2)c1 | inconclusive: 14.1 µM [inhibitor, partial curve, poor fit]
19 | C/C(=N\Nc1ccc([N+](=O)[O-])cc1)c1ccc(O)cc1 | inconclusive: 15.8 µM [activator, single point]
20 | O=C(NC(=S)Nc1c(F)cc(F)cc1Br)c1ccc2c(c1)OCCO2 | active: 7.94 µM
21 | S=c1[nH]nc(-c2ccncc2)n1/N=C/C=C/c1ccco1 | inconclusive: 10 µM [inhibitor, partial curve]

Laid out differently: entries from further up.

| Row | SMILES | Potency |
| --- | --- | --- |
| 6 | O=C(CNC(=S)N(CCCN1CCOCC1)Cc1cccs1)NCCN1CCOCC1 | inactive |
| 7 | COC(=O)[C@@]1(Cc2ccc(F)cc2)[C@H]2c3cc(C(=O)N(C)C)n(Cc4cc(F)c(F)c(F)c4)c3C[C@H]2CN1C(=O)c1ccccc1 | inactive |
| 8 | CCCN(CCC)S(=O)(=O)c1cc(Br)cc2c1N(C(=O)CC)CC2 | inconclusive: 22.4 µM [inhibitor, single point] |
| 9 | COc1ccc(CSc2nnc3n(C)c(=O)c4c5c(sc4n23)CCCC5)cc1 | inconclusive: 7.08 µM [inhibitor, partial curve] |
| 10 | CCN(c1ccccc1)S(=O)(=O)c1ccc(C(=O)N(CCCN(C)C)c2nc3c(C)cccc3s2)cc1 | inconclusive: 35.5 µM [inhibitor, single point] |
| 11 | Cc1cc(=O)oc2cc(OCC(O)Cn3ccnc3)ccc12 (stereo unspecified) | inactive |

— PubChem BioAssay AID2551 (National Center for Advancing Translational Sciences (NCATS), 2010)
